Results: PMC8396497
These are yes or no findings as the source states them, for the method shown. In cells and extracts the contact can be indirect. Some binding calls cover weakened binding; strength is not graded here.

Legend:
Assay in all cases: co-IP
[1] = molecular target: T1, flotillin-1 (mouse (endogenous in C57BL/6 mouse brain)) (UniProt O08917)
T1 sequence: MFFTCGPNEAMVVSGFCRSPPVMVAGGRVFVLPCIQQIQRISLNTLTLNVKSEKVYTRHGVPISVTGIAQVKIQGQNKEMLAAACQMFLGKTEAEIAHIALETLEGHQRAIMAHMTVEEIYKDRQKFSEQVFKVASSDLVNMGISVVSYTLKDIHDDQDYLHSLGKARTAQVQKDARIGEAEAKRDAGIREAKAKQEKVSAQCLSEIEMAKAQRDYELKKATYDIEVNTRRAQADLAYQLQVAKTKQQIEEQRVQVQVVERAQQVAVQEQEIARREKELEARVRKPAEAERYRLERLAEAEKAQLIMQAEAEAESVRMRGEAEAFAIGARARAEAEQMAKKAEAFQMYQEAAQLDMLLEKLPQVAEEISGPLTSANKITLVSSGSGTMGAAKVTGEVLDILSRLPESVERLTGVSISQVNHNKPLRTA

[2] = molecular target: cellular prion protein (PrPc) (mouse (endogenous in C57BL/6 mouse brain)) (UniProt P04925)
[3] = molecular target: T2, Cbl-associated protein (CAP) (mouse (endogenous in C57BL/6 mouse brain)) (UniProt Q62417)
T2 sequence: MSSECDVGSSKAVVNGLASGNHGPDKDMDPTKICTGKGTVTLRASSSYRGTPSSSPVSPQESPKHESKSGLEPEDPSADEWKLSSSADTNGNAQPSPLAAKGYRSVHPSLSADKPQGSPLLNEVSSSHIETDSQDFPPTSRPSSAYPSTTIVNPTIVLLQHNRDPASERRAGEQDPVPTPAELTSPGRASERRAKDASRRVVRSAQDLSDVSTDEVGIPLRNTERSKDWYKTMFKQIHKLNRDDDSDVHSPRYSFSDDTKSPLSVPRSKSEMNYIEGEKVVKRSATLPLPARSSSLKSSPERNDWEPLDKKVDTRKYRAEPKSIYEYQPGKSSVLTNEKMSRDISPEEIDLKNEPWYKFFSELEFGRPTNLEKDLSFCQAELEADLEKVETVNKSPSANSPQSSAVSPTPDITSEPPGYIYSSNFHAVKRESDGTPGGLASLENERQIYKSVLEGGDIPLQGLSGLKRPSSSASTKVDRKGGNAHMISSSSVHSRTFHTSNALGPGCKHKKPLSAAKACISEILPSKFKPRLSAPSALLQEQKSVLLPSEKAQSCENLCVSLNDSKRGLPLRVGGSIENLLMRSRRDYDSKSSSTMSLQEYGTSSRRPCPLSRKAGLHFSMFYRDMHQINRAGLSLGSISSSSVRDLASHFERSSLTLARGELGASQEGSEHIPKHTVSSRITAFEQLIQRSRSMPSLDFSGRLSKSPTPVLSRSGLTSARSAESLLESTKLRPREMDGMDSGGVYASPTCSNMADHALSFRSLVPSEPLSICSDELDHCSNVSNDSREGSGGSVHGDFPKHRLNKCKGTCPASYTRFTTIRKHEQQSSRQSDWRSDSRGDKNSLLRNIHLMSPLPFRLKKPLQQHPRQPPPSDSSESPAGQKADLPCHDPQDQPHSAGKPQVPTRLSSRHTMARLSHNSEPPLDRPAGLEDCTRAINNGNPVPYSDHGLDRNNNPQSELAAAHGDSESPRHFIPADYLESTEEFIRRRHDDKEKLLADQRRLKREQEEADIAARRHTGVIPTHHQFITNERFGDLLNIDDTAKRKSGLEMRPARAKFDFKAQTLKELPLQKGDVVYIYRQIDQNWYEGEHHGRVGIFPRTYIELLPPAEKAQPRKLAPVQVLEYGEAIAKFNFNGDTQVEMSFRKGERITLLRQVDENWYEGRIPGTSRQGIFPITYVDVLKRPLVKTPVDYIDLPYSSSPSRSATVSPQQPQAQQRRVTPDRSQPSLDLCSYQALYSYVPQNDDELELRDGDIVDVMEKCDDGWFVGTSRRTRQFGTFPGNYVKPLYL

“cellular prion protein (PrPc) (from UniProt P04925 23-230)” was tested, and the binding [1] was “binds”.

B1: Cbl-associated protein (CAP) (protein, UniProt Q62417 1-1290)
chain: MSSECDVGSSKAVVNGLASGNHGPDKDMDPTKICTGKGTVTLRASSSYRGTPSSSPVSPQESPKHESKSGLEPEDPSADEWKLSSSADTNGNAQPSPLAAKGYRSVHPSLSADKPQGSPLLNEVSSSHIETDSQDFPPTSRPSSAYPSTTIVNPTIVLLQHNRDPASERRAGEQDPVPTPAELTSPGRASERRAKDASRRVVRSAQDLSDVSTDEVGIPLRNTERSKDWYKTMFKQIHKLNRDDDSDVHSPRYSFSDDTKSPLSVPRSKSEMNYIEGEKVVKRSATLPLPARSSSLKSSPERNDWEPLDKKVDTRKYRAEPKSIYEYQPGKSSVLTNEKMSRDISPEEIDLKNEPWYKFFSELEFGRPTNLEKDLSFCQAELEADLEKVETVNKSPSANSPQSSAVSPTPDITSEPPGYIYSSNFHAVKRESDGTPGGLASLENERQIYKSVLEGGDIPLQGLSGLKRPSSSASTKVDRKGGNAHMISSSSVHSRTFHTSNALGPGCKHKKPLSAAKACISEILPSKFKPRLSAPSALLQEQKSVLLPSEKAQSCENLCVSLNDSKRGLPLRVGGSIENLLMRSRRDYDSKSSSTMSLQEYGTSSRRPCPLSRKAGLHFSMFYRDMHQINRAGLSLGSISSSSVRDLASHFERSSLTLARGELGASQEGSEHIPKHTVSSRITAFEQLIQRSRSMPSLDFSGRLSKSPTPVLSRSGLTSARSAESLLESTKLRPREMDGMDSGGVYASPTCSNMADHALSFRSLVPSEPLSICSDELDHCSNVSNDSREGSGGSVHGDFPKHRLNKCKGTCPASYTRFTTIRKHEQQSSRQSDWRSDSRGDKNSLLRNIHLMSPLPFRLKKPLQQHPRQPPPSDSSESPAGQKADLPCHDPQDQPHSAGKPQVPTRLSSRHTMARLSHNSEPPLDRPAGLEDCTRAINNGNPVPYSDHGLDRNNNPQSELAAAHGDSESPRHFIPADYLESTEEFIRRRHDDKEKLLADQRRLKREQEEADIAARRHTGVIPTHHQFITNERFGDLLNIDDTAKRKSGLEMRPARAKFDFKAQTLKELPLQKGDVVYIYRQIDQNWYEGEHHGRVGIFPRTYIELLPPAEKAQPRKLAPVQVLEYGEAIAKFNFNGDTQVEMSFRKGERITLLRQVDENWYEGRIPGTSRQGIFPITYVDVLKRPLVKTPVDYIDLPYSSSPSRSATVSPQQPQAQQRRVTPDRSQPSLDLCSYQALYSYVPQNDDELELRDGDIVDVMEKCDDGWFVGTSRRTRQFGTFPGNYVKPLYL
B1 was tested, and the binding [2] was “binds”.

B2: flotillin-1 (protein, UniProt O08917 1-428)
chain: MFFTCGPNEAMVVSGFCRSPPVMVAGGRVFVLPCIQQIQRISLNTLTLNVKSEKVYTRHGVPISVTGIAQVKIQGQNKEMLAAACQMFLGKTEAEIAHIALETLEGHQRAIMAHMTVEEIYKDRQKFSEQVFKVASSDLVNMGISVVSYTLKDIHDDQDYLHSLGKARTAQVQKDARIGEAEAKRDAGIREAKAKQEKVSAQCLSEIEMAKAQRDYELKKATYDIEVNTRRAQADLAYQLQVAKTKQQIEEQRVQVQVVERAQQVAVQEQEIARREKELEARVRKPAEAERYRLERLAEAEKAQLIMQAEAEAESVRMRGEAEAFAIGARARAEAEQMAKKAEAFQMYQEAAQLDMLLEKLPQVAEEISGPLTSANKITLVSSGSGTMGAAKVTGEVLDILSRLPESVERLTGVSISQVNHNKPLRTA
With B2 the binding [2] was “binds” and the binding [3] was “binds”.
